# From the supplement of paper PMC4604168 (melanoma cell lines)
# The list shows a part of the results. Single values are uncertain, as repeats are few or missing.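 Imaging used 1,536-well plates; nuclei positive for cleaved PARP by antibody were divided by total DNA-stained nuclei to yield the apoptosis fraction. Doses for screening kept most cells viable, and cell lines differ markedly in resting and induced cleaved-PARP levels.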
# Tested on: SkMel30
# Assay: cleaved PARP positive nuclei fraction relative to DMSO control; melanoma cells; higher = more apoptosis
# Conditions: library dose: low library concentration; 72 h
row,Structure (SMILES),cleaved PARP positive nuclei fraction [%]
1,"Oc1cc(-c2nc(-c3ccccc3)[nH]c2-c2ccncc2)ccc1Cl + C/C(O)=C(\C#N)C(=O)Nc1cc(Br)ccc1Br [LFM-A13] (first compound 0.2 µM, partner dose 2 µM)",70.9
2,"C[As](C)SC[C@H](NC(=O)CC[C@H](N)C(=O)O)C(=O)NCC(=O)O [Darinaparsin] + COc1ccc2c(c1)CCC1C2CCC2(C)C(NCCCCCCN3C(=O)C=CC3=O)CCC12 [U73122] (first compound 0.4 µM, partner dose 0.4 µM)",49.5
3,"CCc1ccc(CCOc2ccc(CC3SC(=O)NC3=O)cc2)nc1 (stereo unspecified) [pioglitazone] + O=C(Oc1ccc([N+](=O)[O-])cc1)N1CCC(C(O)(c2ccc3c(c2)OCO3)c2ccc3c(c2)OCO3)CC1 [JZL184] (first compound 2 µM, partner dose 1 µM)",323
4,"CC1(C)NC(=O)N(c2ccc([N+](=O)[O-])c(C(F)(F)F)c2)C1=O [nilutamide] + C/C(O)=C(\C#N)C(=O)Nc1cc(Br)ccc1Br [LFM-A13] (first compound 1 µM, partner dose 2 µM)",81
5,"C[C@]12O[C@H](C[C@]1(O)CO)n1c3ccccc3c3c4c(c5c6ccccc6n2c5c31)CNC4=O [Lestaurtinib] + O=C(Oc1ccc([N+](=O)[O-])cc1)N1CCC(C(O)(c2ccc3c(c2)OCO3)c2ccc3c(c2)OCO3)CC1 [JZL184] (first compound 0.004 µM, partner dose 1 µM)",76.5
6,"Oc1cc(-c2nc(-c3ccccc3)[nH]c2-c2ccncc2)ccc1Cl + O=C(Oc1ccc([N+](=O)[O-])cc1)N1CCC(C(O)(c2ccc3c(c2)OCO3)c2ccc3c(c2)OCO3)CC1 [JZL184] (first compound 0.2 µM, partner dose 1 µM)",372
7,"Cc1cc(SCc2sc(-c3ccc(C(F)(F)F)c(F)c3)nc2C)ccc1OCC(=O)O + c1cc(-c2cnn3cc(-c4ccc(OCCN5CCCCC5)cc4)cnc23)ccn1 [Dorsomorphin] (first compound 2 µM, partner dose 0.4 µM)",42.2
8,"C[C@]12O[C@H](C[C@]1(O)CO)n1c3ccccc3c3c4c(c5c6ccccc6n2c5c31)CNC4=O [Lestaurtinib] + C[C@@H]1CCN(C(=O)CC#N)C[C@@H]1N(C)c1ncnc2[nH]ccc12 [CP690550] (first compound 0.004 µM, partner dose 1 µM)",81.9
9,"O=S(=O)(c1ccccc1)N(CC(F)(F)F)c1ccc(C(O)(C(F)(F)F)C(F)(F)F)cc1 + O=C(Oc1ccc([N+](=O)[O-])cc1)N1CCC(C(O)(c2ccc3c(c2)OCO3)c2ccc3c(c2)OCO3)CC1 [JZL184] (first compound 1.4 µM, partner dose 1 µM)",103
10,"CCN(CC)CCCCNc1ncc2cc(-c3cc(OC)cc(OC)c3)c(NC(=O)NC(C)(C)C)nc2n1 + C/C(O)=C(\C#N)C(=O)Nc1cc(Br)ccc1Br [LFM-A13] (first compound 0.1 µM, partner dose 2 µM)",72
11,"CC(C)(C)c1cnc(CSc2cnc(NC(=O)C3CCNCC3)s2)o1 + O=C(Oc1ccc([N+](=O)[O-])cc1)N1CCC(C(O)(c2ccc3c(c2)OCO3)c2ccc3c(c2)OCO3)CC1 [JZL184] (first compound 0.01 µM, partner dose 1 µM)",61.8
12,"C[As](C)SC[C@H](NC(=O)CC[C@H](N)C(=O)O)C(=O)NCC(=O)O [Darinaparsin] + O=C(O)C(=O)Nc1sc2c(c1C(=O)O)CCNC2 [TCS401] (first compound 0.4 µM, partner dose 1.66667 µM)",73.8
13,"CCN(CC)CCCCNc1ncc2cc(-c3cc(OC)cc(OC)c3)c(NC(=O)NC(C)(C)C)nc2n1 + O=C(Oc1ccc([N+](=O)[O-])cc1)N1CCC(C(O)(c2ccc3c(c2)OCO3)c2ccc3c(c2)OCO3)CC1 [JZL184] (first compound 0.1 µM, partner dose 1 µM)",31.4
14,"C[As](C)SC[C@H](NC(=O)CC[C@H](N)C(=O)O)C(=O)NCC(=O)O [Darinaparsin] + Cc1cc(SCc2sc(-c3ccc(C(F)(F)F)c(F)c3)nc2C)ccc1OCC(=O)O [GW0742] (first compound 0.4 µM, partner dose 2 µM)",287
15,"CCc1ccc(CCOc2ccc(CC3SC(=O)NC3=O)cc2)nc1 (stereo unspecified) [pioglitazone] + C/C(O)=C(\C#N)C(=O)Nc1cc(Br)ccc1Br [LFM-A13] (first compound 2 µM, partner dose 2 µM)",39.8
16,"CO[C@@H]1[C@H](N(C)C(=O)c2ccccc2)C[C@H]2O[C@]1(C)n1c3ccccc3c3c4c(c5c6ccccc6n2c5c31)C(=O)NC4 [Midostaurin] + C/C(O)=C(\C#N)C(=O)Nc1cc(Br)ccc1Br [LFM-A13] (first compound 0.08 µM, partner dose 2 µM)",42.3

# Looked up above.
# CCN(CC)CCCCNc1ncc2cc(-c3cc(OC)cc(OC)c3)c(NC(=O)NC(C)(C)C)nc2n1 + C/C(O)=C(\C#N)C(=O)Nc1cc(Br)ccc1Br [LFM-A13] (first compound 0.1 µM, partner dose 2 µM) – cleaved PARP positive nuclei fraction [%]: 72
# CO[C@@H]1[C@H](N(C)C(=O)c2ccccc2)C[C@H]2O[C@]1(C)n1c3ccccc3c3c4c(c5c6ccccc6n2c5c31)C(=O)NC4 [Midostaurin] + C/C(O)=C(\C#N)C(=O)Nc1cc(Br)ccc1Br [LFM-A13] (first compound 0.08 µM, partner dose 2 µM) – cleaved PARP positive nuclei fraction [%]: 42.3

# Remaining list, next part.

row,Structure (SMILES),cleaved PARP positive nuclei fraction [%]
1,"c1cc(-c2cnn3cc(-c4ccc(OCCN5CCCCC5)cc4)cnc23)ccn1 [Dorsomorphin] + O=C(Oc1ccc([N+](=O)[O-])cc1)N1CCC(C(O)(c2ccc3c(c2)OCO3)c2ccc3c(c2)OCO3)CC1 [JZL184] (first compound 0.4 µM, partner dose 1 µM)",14.7
2,"Cc1cc(SCc2sc(-c3ccc(C(F)(F)F)c(F)c3)nc2C)ccc1OCC(=O)O + Cn1cc(/C=C2\C(=O)Nc3cccnc32)c2ccccc21 [GW441756] (first compound 2 µM, partner dose 0.4 µM)",45.1
3,"C[C@]12O[C@H](C[C@]1(O)CO)n1c3ccccc3c3c4c(c5c6ccccc6n2c5c31)CNC4=O [Lestaurtinib] + C/C(O)=C(\C#N)C(=O)Nc1cc(Br)ccc1Br [LFM-A13] (first compound 0.004 µM, partner dose 2 µM)",231
4,"C[As](C)SC[C@H](NC(=O)CC[C@H](N)C(=O)O)C(=O)NCC(=O)O [Darinaparsin] + COc1cc2ncnc(Nc3ccc(Oc4ccccc4)cc3)c2cc1OC [SrcI1] (first compound 0.4 µM, partner dose 2 µM)",178
5,"Cn1nnc2c(C(N)=O)ncn2c1=O [temozolomide] + O=C(Oc1ccc([N+](=O)[O-])cc1)N1CCC(C(O)(c2ccc3c(c2)OCO3)c2ccc3c(c2)OCO3)CC1 [JZL184] (first compound 2 µM, partner dose 1 µM)",70.1
6,"C[C@]1(c2nc3c(C(N)=O)cccc3[nH]2)CCCN1 [Veliparib] + O=C(Oc1ccc([N+](=O)[O-])cc1)N1CCC(C(O)(c2ccc3c(c2)OCO3)c2ccc3c(c2)OCO3)CC1 [JZL184] (first compound 1.4 µM, partner dose 1 µM)",16.8
7,"Nc1cccc2c1CN(C1CCC(=O)NC1=O)C2=O (stereo unspecified) [lenalidomide] + O=C(Oc1ccc([N+](=O)[O-])cc1)N1CCC(C(O)(c2ccc3c(c2)OCO3)c2ccc3c(c2)OCO3)CC1 [JZL184] (first compound 1 µM, partner dose 1 µM)",71.7
8,"C[C@]12O[C@H](C[C@]1(O)CO)n1c3ccccc3c3c4c(c5c6ccccc6n2c5c31)CNC4=O [Lestaurtinib] + COc1ccc(COc2ccc(Cc3cnc(N)nc3N)cc2OC)cc1 [GW2580] (first compound 0.004 µM, partner dose 1 µM)",115
9,"Cc1nc(Nc2ncc(C(=O)Nc3c(C)cccc3Cl)s2)cc(N2CCN(CCO)CC2)n1 [dasatanib] + C/C(O)=C(\C#N)C(=O)Nc1cc(Br)ccc1Br [LFM-A13] (first compound 0.004 µM, partner dose 2 µM)",30.6
10,"Cc1cc(SCc2sc(-c3ccc(C(F)(F)F)c(F)c3)nc2C)ccc1OCC(=O)O + Cc1cc([N+](=O)[O-])ccc1NS(=O)(=O)c1cc(Cl)ccc1Cl [FH535] (first compound 2 µM, partner dose 1 µM)",53.2
11,"O=S(=O)(c1ccccc1)N(CC(F)(F)F)c1ccc(C(O)(C(F)(F)F)C(F)(F)F)cc1 + C/C(O)=C(\C#N)C(=O)Nc1cc(Br)ccc1Br [LFM-A13] (first compound 1.4 µM, partner dose 2 µM)",117
12,"O=C(Oc1ccc([N+](=O)[O-])cc1)N1CCC(C(O)(c2ccc3c(c2)OCO3)c2ccc3c(c2)OCO3)CC1 + CCCCCCCCCCCC1=C(O)C(=O)C=C(O)C1=O [Embelin] (first compound 1 µM, partner dose 1.2 µM)",50.3
13,"Cn1cncc1[C@@](N)(c1ccc(Cl)cc1)c1ccc2c(c1)c(-c1cccc(Cl)c1)cc(=O)n2C [tipifarnib] + Cc1cc(SCc2sc(-c3ccc(C(F)(F)F)c(F)c3)nc2C)ccc1OCC(=O)O [GW0742] (first compound 0.01 µM, partner dose 2 µM)",24.6
14,"O=C1NC(=O)/C(=C/c2ccc(-c3ccc(F)cc3O)o2)S1 + O=C(Oc1ccc([N+](=O)[O-])cc1)N1CCC(C(O)(c2ccc3c(c2)OCO3)c2ccc3c(c2)OCO3)CC1 [JZL184] (first compound 1 µM, partner dose 1 µM)",154
15,"CN(C)S(=O)(=O)c1ccc2c(c1)/C(=C/c1cc3c([nH]1)CCCC3)C(=O)N2 + Cc1cc(SCc2sc(-c3ccc(C(F)(F)F)c(F)c3)nc2C)ccc1OCC(=O)O [GW0742] (first compound 0.4 µM, partner dose 2 µM)",451
